This is an account of results in the supplement of paper PMC8551327.

Where a name gives a salt, the structure may show the parent alone. The list shows a part of the results. No stated cut-off is given here; in the data, active = 1.25 or more and inactive = the rest. Most values come without repeats; read them as rough.

The test system of the experiment is Kcc2-LUC knock-in mouse primary cortical neurons (Kcc2 promoter reporter). Kind of experiment: Kcc2 promoter-driven luciferase activity relative to vehicle control (fold of vehicle (ratio)); higher = stronger Kcc2 promoter activation (Kcc2 expression enhancer). The note with it: 100 nM; 48 h.
With `COc1cc(/C=C(\OC(C)=O)c2ccc3c(c2)OCO3)cc(OC)c1OC`, the “Kcc2 promoter-driven luciferase activity” value was inactive: 0.98.
Turning to `COc1cc2c(cc1Oc1ccc(OC)c3c1CC1c4c(cc(OC)c(OC)c4-3)CCN1C)CC1c3c(cc(OC)c(OC)c3-2)CCN1C` (centres undefined), the “Kcc2 promoter-driven luciferase activity” value is inactive: 0.01.
The figure for `CC1(C)NC(=O)N(CCCCCCN2C(=O)NC(C)(C)C2=O)C1=O` is inactive: 1.13.
`CCN(CC)c1ccc2cc3ccc(=[N+](CC)CC)cc-3oc2c1` [Pyronine B]: the “Kcc2 promoter-driven luciferase activity” value is inactive: 0.8.
`Nc1ncnc2c([C@@H]3O[C@H](CO)[C@@H](O)[C@H]3O)c[nH]c12` [9-Deazaadenosine]: the “Kcc2 promoter-driven luciferase activity” value was active: 2.37.
On to `Cc1ccc(NC(=O)c2cccc([N+](=O)[O-])c2O)c(C)c1` [n-(2,4-Dimethylphenyl)-2-hydroxy-3-nitrobenzamide], for which the “Kcc2 promoter-driven luciferase activity” value was active: 1.84.
With `O=C(/C=C/c1c(O)ccc2ccccc12)c1cccc(O)c1` [3-(2-Hydroxy-1-naphthyl)-1-(3-hydroxyphenyl)-2-propen-1-one], the “Kcc2 promoter-driven luciferase activity” value is inactive: 1.1.
Then `CC1=C2C(=CO[C@H](C)[C@H]2C)C(=O)C(C(=O)O)=C1O` [Citrinin], with inactive: 0.85.
Turning to `CCOC(=O)Cc1cc(=O)oc2cc(O)ccc12` [ethyl 2-(7-hydroxy-2-oxochromen-4-yl)acetate], the “Kcc2 promoter-driven luciferase activity” value was inactive: 0.56.
On to `NC1(CCNC(=O)c2ccccc2)CCN(C(=O)c2ccccc2)CC1`, for which the “Kcc2 promoter-driven luciferase activity” value was inactive: 0.902.
For `Cc1nc(-n2nc(-c3ccccc3)cc2-c2ccccc2)sc1C(=O)/C=C/c1ccc(Cl)c(Cl)c1`, the “Kcc2 promoter-driven luciferase activity” value is inactive: 0.79.
As for `COc1ccc(/C=C\c2cc(OC)c(OC)c(OC)c2)cc1OP(=O)(O)O` [Combretastatin A-4 Phosphate Ammonium salt], the “Kcc2 promoter-driven luciferase activity” value is inactive: 1.21.
Then `Cc1c(N)nc(C(CC(N)=O)NCC(N)C(N)=O)nc1C(=O)NC(C(=O)NC(C)C(O)C(C)C(=O)NC(C(=O)NCCc1nc(-c2nc(C(=O)NCCCNCCCCN)cs2)cs1)C(C)O)C(OC1OC(CO)C(O)C(O)C1OC1OC(CO)C(O)C(OC(N)=O)C1O)c1cnc[nH]1` (centres undefined) [Bleomycin A5-Sulfate], with inactive: 0.77.
Regarding `CCC12C[N+]3([O-])CCc4c([nH]c5ccccc45)C(C(=O)OC)(c4cc5c(cc4OC)N(C)C4C(O)(C(=O)OC)C(OC(C)=O)C6(CC)C=CCN7CCC54C76)CC(C3)C1O2` (centres undefined) [Leurosine N-oxide], the “Kcc2 promoter-driven luciferase activity” value was inactive: 0.01.
Then `Cc1cc(NC(=O)NC(=O)c2ccccc2NC(=O)CN)ccc1Oc1ncc(Br)cn1` [Glycylaminophenylbenzoylurea (HCl salt)], with active: 1.26.
Take `CN1CCN(CCSC2Cc3cc(Cl)ccc3Sc3ccccc32)CC1` (centres undefined): the “Kcc2 promoter-driven luciferase activity” value was inactive: 1.13.
Then `Nc1nc(SCc2ccccc2Cl)c2ncn(C3OC(CO)C(O)C3O)c2n1` (centres undefined), with inactive: 0.43; and `CC1=NC(C(C)C)C(=O)O1` (centres undefined) [2-Methyl-4-propan-2-yl-4H-1,3-oxazol-5-one], with active: 1.35; and `NC(=O)C#CC(N)=O` [Cellocidin], with inactive: 1.2.
Take `CCCc1cc(=O)oc2c3c(c4c(c12)OC(C)(C)C=C4)O[C@H](C)[C@@H](C)[C@@H]3O`: the “Kcc2 promoter-driven luciferase activity” value was inactive: 0.985.
Then `COc1ccc(O)cc1` [Mequinol], with active: 1.32.
For the compound `CCCCCCCCCCCCCCCCCCOCC(COCCOCC[N+]1(CCCCCC(=O)[O-])CCCC1)Oc1ncccn1` (centres undefined) [Pyrrolidinium, inner salt], the “Kcc2 promoter-driven luciferase activity” value is inactive: 1.02.
As for `C=C1C(=O)O[C@@H]2C[C@@]3(C)CCC[C@H](C)C3=C[C@H]12` [Helenin], the “Kcc2 promoter-driven luciferase activity” value was inactive: 0.52.
Then `CC(=O)OC[C@H]1O[C@@H](NC(=O)N(CCCl)N=O)[C@H](OC(C)=O)[C@@H](OC(C)=O)[C@@H]1OC(C)=O`, with inactive: 1.23.
With `CCCC[S+]([O-])CC(CO)NC(=O)C=Cc1c(C)[nH]c(=O)[nH]c1=O` (stereo in doubt), the “Kcc2 promoter-driven luciferase activity” value was inactive: 0.85.
Consider `CC1=CC(=C(c2ccc(N)cc2)c2ccc(N)cc2)C=CC1=N` [Basic Violet 14], for which the “Kcc2 promoter-driven luciferase activity” value was inactive: 1.04.
The figure for `OCc1ccc(-c2ccc(-c3ccc(CO)s3)o2)s1` [Sos Bismethanol] is inactive: 0.95; for `COc1ccc(-n2/c(=N/C(=S)N(C)C)ss/c2=N\C(=S)N(C)C)cc1` it is inactive: 0.89; for `Fc1cccc(Cl)c1C1SCc2nc3ccccc3n21` (centres undefined) [1-[2-Chloro-6-fluorophenyl]-3H-thiazolo[3,4-a]benzimidazole] it is inactive: 0.99.
Turning to `CO[C@H]1[C@H](OC(=O)c2ccc(C)[nH]2)[C@H](O)[C@@H](Oc2ccc3c(O)c(NC(=O)c4c[nH]c(C(=O)Nc5c(O)c6ccc(O[C@H]7OC(C)(C)[C@@H](OC)[C@H](OC(=O)c8ccc(C)[nH]8)[C@@H]7O)c(C)c6oc5=O)c4C)c(=O)oc3c2C)OC1(C)C` [Coumermycin A1], the “Kcc2 promoter-driven luciferase activity” value was inactive: 0.98.
Turning to `CN1CCc2cc3c(cc2C(=O)Cc2ccc4c(c2C1)OCO4)OCO3` [Protopine Hydrochloride], the “Kcc2 promoter-driven luciferase activity” value is active: 1.57.
Consider `O=[n+]1c2c(n([O-])c3ccccc31)-c1cccc3cccc-2c13` [Acenaphtho[1,2-b]quinoxaline 7,12-dioxide], for which the “Kcc2 promoter-driven luciferase activity” value is inactive: 0.97.
As for `CCOC(=O)C1=C(C)NC(=S)NC1c1ccccc1` (centres undefined), the “Kcc2 promoter-driven luciferase activity” value is inactive: 0.67.
The figure for `CCN(CC)CCNC(=O)c1nn(-c2ccc(Cl)cc2)c2c1CCc1cc(OC)ccc1-2` is inactive: 1.04.
The figure for `CC(=O)Oc1ccc2ccc(=O)oc2c1OC(C)=O` [Daphnetin Diacetate] is inactive: 0.43; for `C/C=C/C1=C(Cl)C(=O)[C@@H](Cl)[C@@]1(O)C(=O)OC` [Cryptosporiopsin] it is inactive: 0.48; for `CN1CCN(CN2C(=O)C3C4C=CC(C3C2=O)C2C3C(=O)N(CN5CCN(C)CC5)C(=O)C3C42)CC1` (centres undefined) it is inactive: 0.92.
The figure for `CCSC(=O)N1c2ccc(OC)cc2C=CC1C#N` (centres undefined) [S-ethyl 2-cyano-6-methoxy-2H-quinoline-1-carbothioate] is active: 1.58; for `COC1=CC(=O)c2c(ccc3ncnc(N)c23)C1=O` [1-amino-8-methoxybenzo[f]quinazoline-7,10-dione] it is inactive: 0.89.
